Data as given in publication PMC11104598.
Structures were worked out from names or drawings and are uncertain.

Target: bromodomain-containing protein 4 (BRD4) (Homo sapiens, UniProt O60885)
Test: PROTAC degradation by western blot (DC50, MDA-MB-231), blocked by excess JQ1; BD1 reporter and BD1-DCAF11 co-IP
Excerpt: PROTAC degradation by western blot (DC50, MDA-MB-231), blocked by excess JQ1; BD1 reporter and BD1-DCAF11 co-IP on bromodomain-containing protein 4 (BRD4) | an excess of JQ1 could competitively block the degradation of BRD4 induced by HL435

Cc1sc2c(c1C)C(c1ccc(Cl)cc1)=N[C@@H](CC(=O)NCCCOCCOCCOCCCNC(=O)COc1ccc(Br)cc1/C=C1\C(=O)Nc3cc(C(F)(F)F)ccc31)c1nnc(C)n1-2
DC50: 11.9 nM
